# Assay results: PubChem BioAssay AID2685 (National Center for Advancing Translational Sciences (NCATS), 2010)
# The other results are listed elsewhere or left out. Shown are side measurements of this screen, not its main read-out; they come without a call. Compounds called inactive in the main read-out are mostly missing here. Words in brackets tell the shape of the fitted curve; partial curves, single points and poor fits give uncertain potencies.
# Test: qHTS Assay for Lipid Storage Modulators in Drosophila S3 Cells;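 on cell number change: cells counted by Cell Tracker Red CMTPX staining in the red channel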
# Conditions: BODIPY lipid droplet fluorescence, 18-24 h; for cell number change: measured here: cell count max response, cells fed with added oleic acid
# In short: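 Laser-scanning cytometry quantifies lipid droplet accumulation (500–530 nm total intensity; droplet/cell object ratio) in oleic acid-fed (400 uM added) Drosophila S3 cells treated with a concentration series. 20 uM Triacsin C defined 100% inhibition.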
# [1] = measured here: cell number channel AC50, cells fed with added oleic acid
# [2] = measured here: lipid fluorescence (Fed channel) AC50, cells fed with added oleic acid
SMILES,cell number change [%],AC50 [1],AC50 [2]
O=C(c1ccccc1Cc1ccccc1)N1CCN(S(=O)(=O)c2ccccc2[N+](=O)[O-])CC1,-34.4,"29.1 µM [falling, single point]","23.1 µM [falling, single point]"
CCCCc1oc2c(c(=O)c1C)C(=O)CC(c1ccccc1)C2 (stereo unspecified),,"1.16 µM [rising, full curve]","1.46 µM [rising, full curve]"
COc1ccc(N(CC(=O)NCCSCc2ccc(Cl)cc2)S(C)(=O)=O)cc1Cl,-49.9,"18.4 µM [falling, partial curve]","29.1 µM [falling, single point]"
NC(=O)Nc1ccccc1C(=O)N1CCC(O)(c2ccc(Cl)cc2)CC1,-10.8,,"6.51 µM [falling, single point]"
COC(=O)c1cc(N2CCNCC2)nc2ccccc12,5.87,,
Cc1cccc(NC(=O)COc2nsnc2N2CCOCC2)c1,31,"7.31 µM [rising, partial curve]",
O=C(Nc1cc(=O)[nH]c2ncnn12)c1ccccc1Cl,4.61,,"0.00517 µM [rising, full curve]"
O=C(NCCNC(=O)c1ccc(Cl)cc1Cl)c1cnccn1,-34.2,"29.1 µM [falling, single point]","35.5 µM [falling, single point]"
COc1ccccc1NC(=O)CN1CCN(CC(=O)Nc2ccc3c(c2)OCO3)CC1,-15.9,,
O=C(/C=C/c1ccc(F)cc1)NC(=S)N1CCCCC1c1cccnc1 (stereo unspecified),11.2,,"0.058 µM [rising, full curve, poor fit]"
CCOC(=O)C1CCN(C(=O)COC(=O)COc2ccc(Cl)cc2)CC1,70.6,"1.64 µM [rising, full curve]",
Cc1ccc2c(c1)-c1cc(C)nn1C(c1ccc3c(c1)OCO3)N2 (stereo unspecified),,"0.731 µM [rising, single point]","1.46 µM [rising, partial curve]"
Cc1ccc(C(=O)NC(=S)Nc2cccc(NC(=O)c3ccccc3Cl)c2)cc1[N+](=O)[O-],-9.84,"6.51 µM [falling, single point]","2.91 µM [falling, full curve]"
CC1=CC(=NOC(=O)c2cccc([N+](=O)[O-])c2)C=C(C)C1=O,17,"0.164 µM [falling, full curve]","1.64 µM [falling, partial curve]"
COc1ccc(OC)c(Nc2nc(N)c([N+](=O)[O-])c(NC3CCCCC3)n2)c1,4.5,,"6.51 µM [falling, partial curve, poor fit]"
CC1(C)CC(=O)C2=C(C1)N(c1ccc(F)cc1)C(=O)CC2c1ccccc1 (stereo unspecified),,,"29.1 µM [rising, single point]"
CC(=O)c1cccc(Nc2ncnc3ccc(Br)cc23)c1,-20.2,,
COc1cc(SC)ccc1C(=O)NCCNC(=O)c1nonc1N,-24.4,,
Cc1ccccc1NC(=S)Nc1ccccn1,0.179,,"0.116 µM [rising, full curve, poor fit]"
CC(Oc1ccccc1)C(=O)N1CCc2ccccc2C1 (stereo unspecified),4.76,,
Cc1ccn2cc(C(=O)Nc3ccccc3N3CCOCC3)nc2c1,-3.19,,"3.26 µM [rising, partial curve]"

SMILES,cell number change [%],AC50 [1],AC50 [2]
COc1ccc(C(=O)NC(=S)NCc2ccco2)cc1OC,52.4,"29.1 µM [rising, single point]",
O=C(NCCS(=O)(=O)N1CCN(c2ccccc2)CC1)c1cccs1,-17.9,,"4.11 µM [falling, full curve]"
CC(=O)N1CCN=C1SCc1cccc(Cl)c1,10.8,"0.517 µM [rising, single point]",
C=CCNC(=S)N1CCN(CCN=CC2=C(O)CC(c3ccc(Cl)cc3)CC2=O)CC1 (stereo unspecified),,,"0.58 µM [rising, single point]"
CS(=O)(=O)N(CCc1ccccc1)CC(=O)N1CCN(Cc2ccc3c(c2)OCO3)CC1,-25.5,,
NS(=O)(=O)c1ccc(CCNC(=O)c2ccc3c(c2)OCO3)cc1,,,"20.6 µM [falling, single point]"
Nc1c(C(=O)Nc2ccccc2)c2nc3ccccc3nc2n1-c1ccc(O)cc1,-33.2,"29.1 µM [falling, partial curve, poor fit]",
COc1c2ccoc2nc2c(OC)c(OCC(O)C(C)(C)O)ccc12 (stereo unspecified),179,,"29.1 µM [rising, single point]"
COc1cc(C(CC(=O)Nc2cc(C)ccn2)N2Cc3ccccc3C2=O)cc(OC)c1OC (stereo unspecified),-7.8,,"5.8 µM [rising, single point]"
CCCCN(C(=O)c1ccc(OC(F)(F)F)cc1)c1c(N)n(CCC)c(=O)[nH]c1=O,-53.4,,"18.4 µM [falling, single point]"
NC(=O)c1ccc(NC(=O)CCc2nc3ccccc3s2)cc1,40.5,"29.1 µM [rising, single point]","0.461 µM [rising, single point]"
O=C(Nc1nc2ccccc2[nH]1)c1ccc(S(=O)(=O)N2CCOCC2)cc1,94.3,"29.1 µM [rising, single point]","29.1 µM [rising, single point]"
CSCCC(NC(=O)c1cccc(C)c1)C(=O)OCC(=O)Nc1c(C)nn(-c2ccccc2)c1C (stereo unspecified),3.94,,"6.51 µM [falling, single point]"
O=C1c2ccccc2NC(c2ccc(-c3ccccc3F)o2)N1O (stereo unspecified),-40.9,"3.66 µM [falling, partial curve]","2.59 µM [falling, partial curve]"
O=C(Nc1nn(Cc2ccccc2F)cc1Br)c1cccs1,-5.27,,"13 µM [rising, partial curve]"
COc1cccc(CNS(=O)(=O)c2cc3c(cc2C)NC(=O)CO3)c1,-3.75,,"4.11 µM [falling, single point]"
Cc1noc(C(=O)Nc2cccc(O)c2)c1Cl,33.8,"18.4 µM [rising, single point]","29.1 µM [rising, single point]"
CN(Cc1ccccc1)C(=O)C1CCN(S(C)(=O)=O)CC1,15.8,,
Cn1c(SCC(N)=O)nnc1C1CCN(S(=O)(=O)c2ccccc2C(F)(F)F)CC1,-1.62,,
Cc1ccc(OCCNC(=O)C2CCCCC2)cc1,19.8,,
CN1/C(=C\C(=O)c2cccnc2Cl)C(C)(C)c2ccccc21,11.5,"0.13 µM [rising, full curve, poor fit]","20.6 µM [rising, single point]"

# In another format: five of the compounds above.
SMILES | cell number change [%] | AC50 [1] | AC50 [2]
CCCCc1oc2c(c(=O)c1C)C(=O)CC(c1ccccc1)C2 (stereo unspecified) |  | 1.16 µM [rising, full curve] | 1.46 µM [rising, full curve]
O=C(NCCNC(=O)c1ccc(Cl)cc1Cl)c1cnccn1 | -34.2 | 29.1 µM [falling, single point] | 35.5 µM [falling, single point]
C=CCNC(=S)N1CCN(CCN=CC2=C(O)CC(c3ccc(Cl)cc3)CC2=O)CC1 (stereo unspecified) |  |  | 0.58 µM [rising, single point]
CCCCN(C(=O)c1ccc(OC(F)(F)F)cc1)c1c(N)n(CCC)c(=O)[nH]c1=O | -53.4 |  | 18.4 µM [falling, single point]
Cc1noc(C(=O)Nc2cccc(O)c2)c1Cl | 33.8 | 18.4 µM [rising, single point] | 29.1 µM [rising, single point]

# (further entries)

SMILES,cell number change [%],AC50 [1],AC50 [2]
CC(CCN1C(Nc2ccccc2)=NC[C@@H]1C)c1ccccc1 (stereo partly specified),18.6,,"29.1 µM [falling, single point]"
Cc1ccc(S(=O)(=O)Nc2c(C)nn(C)c2C)cc1C,10.8,"0.461 µM [rising, full curve]","0.517 µM [rising, full curve]"
COc1ccc2[nH]c(CN3CCC(n4nccc4NC(=O)C4CC4)CC3)c(C)c2c1,26.9,,"0.00461 µM [rising, full curve, poor fit]"
Cc1ccc(C(=S)N2CCN(Cc3ccccc3)CC2)cc1,-18.8,,"1.58 µM [falling, full curve]"
CCCc1cc(C(=O)NCc2ccco2)no1,-17.6,,"3.26 µM [falling, partial curve]"
CCOC(=O)/C(=N\Nc1ncnc2ccccc12)c1ccc(OC)cc1,-1.8,,
O=C(O)CNC(=O)c1ccc(NS(=O)(=O)c2ccc3ccccc3c2)cc1,-5.71,,
CCOC(=O)C1(CCCc2ccccc2)CCN(C(=O)CCn2cncn2)CC1,0.716,,"0.366 µM [falling, full curve]"
CCOc1ccc(-n2c(SCC(N)=O)nc3c(c2=O)SCC3)cc1,-0.405,,
NCCCCCNC(=O)/C=N\O,-7.48,,"0.291 µM [falling, full curve, poor fit]"
COc1ccc(-c2noc(CCC(=O)Nc3cc(OC)ccc3OC)n2)cc1,3.47,,"0.58 µM [rising, full curve]"
CCCn1cc(CN2CCC(C(=O)Nc3cccc(-c4cscn4)c3)CC2)c(C)n1,9.54,"5.17 µM [falling, single point]","4.61 µM [falling, single point]"
CCCCn1c(N2CCC(Cc3ccccc3)CC2)nc2c1c(=O)[nH]c(=O)n2C,-211,"20.6 µM [falling, partial curve]","18.4 µM [falling, partial curve]"
CC(NC(=O)C(=O)N1CCOCC1)C(c1cccs1)N1CCN(c2ccccc2)CC1 (stereo unspecified),-23.2,,
COc1ccc(C2/C(=C(/O)c3ccc(C)cc3)C(=O)C(=O)N2C)cc1 (stereo unspecified),-105,"32.6 µM [falling, partial curve]","7.31 µM [falling, partial curve]"
O=C(O)c1ccccc1Oc1ccc(Oc2ccccc2)cc1,7.67,,"29.1 µM [rising, partial curve, poor fit]"
S=c1[nH]nc(-c2ccccc2)o1,,,"2.31 µM [rising, partial curve]"
O=C(COc1ccc(Cl)cc1)N(Cc1ccc(F)cc1)C1CCS(=O)(=O)C1 (stereo unspecified),-11.9,,
CCOC(=O)c1c(NC(C)=O)sc2c(OC(C)=O)cccc12,-35.2,"0.146 µM [falling, full curve, poor fit]",
O=C(CN1C(=O)c2cccc3cccc1c23)NCc1cccnc1,246,"20.6 µM [rising, partial curve]","3.26 µM [rising, partial curve]"
